Publication PMC12795458

Tests used:
[1] = target: T1, DnaN fused to the Nanoluciferase small subunit (CEPIIlac-smBit-dnaN) (S. pneumoniae) (UniProt O06672); assay: split reporter; split Nanoluciferase in S. pneumoniae cells; C+Y medium, 200 µM IPTG for 1 h, NanoGlo substrate; luminescence relative to the negative control strains R5380 and R5570
T1 sequence: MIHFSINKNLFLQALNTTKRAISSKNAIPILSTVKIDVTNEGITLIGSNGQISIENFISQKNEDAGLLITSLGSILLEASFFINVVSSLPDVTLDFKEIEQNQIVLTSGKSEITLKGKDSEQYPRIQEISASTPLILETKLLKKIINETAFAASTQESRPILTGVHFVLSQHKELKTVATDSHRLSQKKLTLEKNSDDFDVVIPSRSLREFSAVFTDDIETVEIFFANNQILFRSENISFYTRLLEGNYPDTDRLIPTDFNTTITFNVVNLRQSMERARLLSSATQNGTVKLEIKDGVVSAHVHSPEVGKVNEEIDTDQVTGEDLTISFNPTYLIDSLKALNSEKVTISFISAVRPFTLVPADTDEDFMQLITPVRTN

[2] = target: T2, DnaN sliding clamp, Gal4 two-hybrid fusion (S. pneumoniae) (UniProt O06672); assay: two-hybrid; Gal4-based PGAD-C1 and PGBD-C1 fusions; yeast PJ69-4a mated with PJ69-4α; growth of diploid cells after 8 or 20 days at 30°C on synthetic complete medium lacking leucine, uracil and histidine (HIS3 reporter); empty-vector controls
T2 sequence: T1 sequence

[3] = target: RipA toxin (Spr1630), Gal4 two-hybrid fusion (S. pneumoniae) (UniProt Q8CYD6); assay: as above

For “RipA fused to the Nanoluciferase large subunit (CEPlac-lgbit-ripA) (S. pneumoniae)”, the binding [1] was “binds”.

“RipA toxin (Spr1630), Gal4 two-hybrid fusion (from UniProt Q8CYD6)” was tested, and the binding [2] was “binds”.

B1: DnaN sliding clamp, Gal4 two-hybrid fusion (protein, UniProt O06672 1-378)
chain: T1 sequence
B1 was tested, and the binding [3] was “binds”.

Results are given in words; binding and its absence hold for the method and conditions named. Binding calls can cover weak binding; strength is not graded here. Tags and fused reporters may be left off the sequences shown. For part of these data: In cells and extracts the contact can be indirect.
